Some peptides are written in HELM: one residue between dots, names in brackets for other building blocks, links after the first $.
Tests used:
Settings in all cases: whole synthesis, HPLC (gradient A)
[1] = general procedure: Fmoc solid-phase peptide synthesis; 2-chlorotrityl polystyrene resin, preloaded: (EA)G-O-, (BA)G-O-, (PrA)G-O-chlorotritylresin
[2] = general procedure: Fmoc solid-phase peptide synthesis; (EA)G-O chlorotritylresin
[3] = general procedure: Fmoc solid-phase peptide synthesis; (EA)G-O-chlorotritylresin

Row | Substance | final HPLC purity [1] [%] | also measured
1 | PEPTIDE1{T.W.L.K.[PeAG].R.R.W.K.Y.Y.R.[dP].P}$PEPTIDE1,PEPTIDE1,1:R1-14:R2$$$V2.0 [12] | 70 | –
2 | PEPTIDE1{R.W.L.K.[PeAG].R.R.W.K.Y.Y.V.[dP].P}$PEPTIDE1,PEPTIDE1,1:R1-14:R2$$$V2.0 | 100 | –
3 | PEPTIDE1{L.R.L.K.K.[BAG].R.[Bip].K.Y.R.V.[dP].P}$PEPTIDE1,PEPTIDE1,1:R1-14:R2$$$V2.0 | 63 | –
4 | PEPTIDE1{L.R.L.[hArg].[hArg].[EGUG].R.W.[hArg].Y.R.V.[dP].P}$PEPTIDE1,PEPTIDE1,1:R1-14:R2$$$V2.0 | – | final HPLC purity [2]: 40%
5 | PEPTIDE1{L.R.L.K.K.[EAG].R.W.K.Y.R.V.[dP].P}$PEPTIDE1,PEPTIDE1,1:R1-14:R2$$$V2.0 | – | final HPLC purity [3]: 68%
6 | PEPTIDE1{R.W.L.Q.[PeAG].R.R.W.K.Y.Y.R.[dP].P}$PEPTIDE1,PEPTIDE1,1:R1-14:R2$$$V2.0 | 100 | –
7 | PEPTIDE1{R.W.L.Q.K.R.[PeAG].W.K.Y.Y.R.[dP].P}$PEPTIDE1,PEPTIDE1,1:R1-14:R2$$$V2.0 | 100 | –

From patent US7855179 (dated 2010)
